Laboratory results: patent US20040072170A1
These are yes or no findings as the source states them, for the method shown. Some entries that bind do so weakly or less than the wild type.

Chains of the proteins cited; added tags and fusions are not shown. Residues count along the entry.
UniProt P35609, residues 432-894: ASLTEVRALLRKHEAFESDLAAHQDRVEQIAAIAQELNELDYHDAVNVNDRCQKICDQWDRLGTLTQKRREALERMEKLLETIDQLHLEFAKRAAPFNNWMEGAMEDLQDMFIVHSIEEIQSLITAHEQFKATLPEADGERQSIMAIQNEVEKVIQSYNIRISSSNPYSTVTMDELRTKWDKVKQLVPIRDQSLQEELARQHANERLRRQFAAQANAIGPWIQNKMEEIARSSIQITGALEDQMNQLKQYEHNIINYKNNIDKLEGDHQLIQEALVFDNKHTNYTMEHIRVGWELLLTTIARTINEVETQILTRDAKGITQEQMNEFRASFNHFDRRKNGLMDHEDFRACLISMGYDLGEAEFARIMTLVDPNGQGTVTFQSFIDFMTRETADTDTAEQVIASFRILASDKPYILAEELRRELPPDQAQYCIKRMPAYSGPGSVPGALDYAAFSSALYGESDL
UniProt Q9UER7, residues 612-740: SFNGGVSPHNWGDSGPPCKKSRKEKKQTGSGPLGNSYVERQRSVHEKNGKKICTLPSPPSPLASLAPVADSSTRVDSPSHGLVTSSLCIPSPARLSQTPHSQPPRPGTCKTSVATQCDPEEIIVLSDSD
UniProt P12883, residues 1200-1935: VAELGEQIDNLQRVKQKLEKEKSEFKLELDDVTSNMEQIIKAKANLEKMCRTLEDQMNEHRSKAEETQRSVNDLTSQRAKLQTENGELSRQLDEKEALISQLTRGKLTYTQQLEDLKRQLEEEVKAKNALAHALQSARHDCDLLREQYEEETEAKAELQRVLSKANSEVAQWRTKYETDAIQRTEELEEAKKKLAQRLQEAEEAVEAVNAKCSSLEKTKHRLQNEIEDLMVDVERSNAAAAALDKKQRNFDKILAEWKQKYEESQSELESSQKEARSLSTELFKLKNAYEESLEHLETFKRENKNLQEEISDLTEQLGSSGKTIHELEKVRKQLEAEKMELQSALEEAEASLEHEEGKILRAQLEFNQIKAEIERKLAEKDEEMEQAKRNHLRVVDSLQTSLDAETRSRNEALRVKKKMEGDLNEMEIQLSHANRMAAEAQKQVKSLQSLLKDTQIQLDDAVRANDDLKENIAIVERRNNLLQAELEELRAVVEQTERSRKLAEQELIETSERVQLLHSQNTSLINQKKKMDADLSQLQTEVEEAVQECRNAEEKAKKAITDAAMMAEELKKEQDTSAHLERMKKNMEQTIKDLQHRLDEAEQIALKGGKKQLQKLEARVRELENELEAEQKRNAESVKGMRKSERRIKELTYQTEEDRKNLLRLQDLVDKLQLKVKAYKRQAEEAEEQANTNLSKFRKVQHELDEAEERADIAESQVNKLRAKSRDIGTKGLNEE

How the values were obtained:
[1] = molecular target: α-actinin 2 (M86406) (human) (UniProt P35609); test: yeast two-hybrid screen, AAF63623 as bait against a human heart cDNA library
[2] = molecular target: Daxx (AB015051) (human) (UniProt Q9UER7); test: yeast two-hybrid screen, 66214pep as bait against a human heart cDNA library
[3] = molecular target: beta myosin heavy chain (M21665) (human) (UniProt P12883); test: yeast two-hybrid screen, AAD45360 as bait against a human heart cDNA library

B1: AAF63623 (SMP) (protein)
chain: MLSHNTMMKQRKQQATAIMKEVHGNDVDGMDLGKKVSIPRDIMLEELSHLSNRGARLFKMRQRRSDKYTFENFQYQSRAQINHSIAMQNGKVDGSNLEGGSQQAPLTPPNTPDPRSPPNPDNIAPGYSGPLKEIPPEKFNTTAVPKYYQSPWEQAISNDPELLEALYPKLFKPEGKAELPDYRSFNRVATPFGGFEKASRMVKFKVPDFELLLLTDPRFMSFVNPLSGRRSFNRTPKGWISENIPIVITTEPTDDTTVPESEDL
B1 was tested, and the binding [1] was “binds”.

B2: 66214pep (protein)
chain: MYMSKQPVSNVRAIQANINIPMGAFRPGAGQPPRRKECTPEVEEGVPPTSDEEKKPIPGAKKLPGPAVNLSEIQNIKSELKYVPKAEQ
In the case of B2, the binding [2] is reported as “binds”.

B3: AAD45360, Apolipoprotein B mRNA editing protein 2 (APOBEC-2) (enzyme)
chain: MAQKEEAAVATEAASQNGEDLENLDDPEKLKELIELPPFEIVTGERLPANFFKFQFRNVEYSSGRNKTFLCYVVEAQGKGGQVQASRGYLEDEHAAAHAEEAFFNTILPAFDPALRYNVTWYVSSSPCAACADRIIKTLSKTKNLRLLILVGRLFMWEEPEIQAALKKLKEAGCKLRIMKPQDFEYVWQNFVEQEEGESKAFQPWEDIQENFLYYEEKLADILK
For B3, the binding [3] was “binds”.
